In US10231907B2, “Compositions for improving the health and appearance of skin” (Algenist Holdings, Inc., priority 2006, dated 2019):
For at least one compound, name, drawing or mass did not settle the structure.

Test system: Porphyridium sp. and Porphyridium cruentum
Experiment: Antibiotic sensitivity on agar plates
Type: cell-based
Conditions: 14 days
Method: Approximately […] cells (300 ul of 1.5×10^5 cells per ml) of Porphyridium sp. and Porphyridium cruentum cultures in liquid ATCC 1495 ASW media were plated onto ATCC 1495 ASW agar plates (1.5% agar). The plates contained varying amounts of zeocin, sulfometuron, hygromycin and spectinomycin. The plates were put under constant artificial fluorescent light of approximately 480 lux. After 14 days, plates were checked for growth.

Cc1c(N)nc([C@H](CC(N)=O)NC[C@H](N)C(N)=O)nc1C(=O)N[C@H](C(=O)N[C@H](C)[C@@H](O)[C@H](C)C(=O)N[C@H](C(=O)NCCC1=N[C@@H](c2nc(C(=O)NCCCCN=C(N)N)cs2)CS1)[C@@H](C)O)[C@@H](O[C@@H]1O[C@@H](CO)[C@@H](O)[C@H](O)[C@@H]1O[C@H]1O[C@H](CO)[C@@H](O)[C@H](OC(N)=O)[C@@H]1O)c1cnc[nH]1 [Zeocin]
Growth (2.5 ug/ml): +
Growth (5.0 ug/ml): −
Growth (7.0 ug/ml): −
